# Results deposited as PubChem BioAssay AID1508597 (Cure First, 2020)
# Screen: 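Genes whose silencing sensitises or protects ovarian cancer cells against rucaparib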 (primary screen)
# Cell system: human ovarian carcinoma lines grown from tumours: OCI-P5x (papillary serous) and OCI-C5x (clear cell)
# Reagent: siRNA pool against human genes, 1.25 pmol siRNA per well
# Time to read-out: 72 h or 96 h, depending on the cell culture
# Challenge: rucaparib 20 µM (about IC30) or vehicle, present until read-out
# Rucaparib or vehicle: Vehicle
# Cell line: OCI-C5x (clear cell)
# Detection: 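ATP luminescence measured at 72 or 96 h according to the culture, then normalised and expressed as percent viability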
# Reading the numbers: viability, normalised: higher = more viable cells remaining
# Rule for the call: 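Active when normalised viability falls below 80 percent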
# Calls: active = viability under 80%; inactive = viability 80% or more
# This is an unselected part of the about 2,100 reagents, in one setting of the screen. 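Calls flag viability under 80% in either arm, not effects specific to rucaparib; the reference for percent is not stated.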 A number with no mark means an inactive call. Not given: the 100% reference.
Gene,technical replicate,"viability, normalised (%)"
MAPK4,1,84.5
MAPK4,2,68.7 (active)
MAPK4,3,57.6 (active)
RAD23B,1,43.8 (active)
RAD23B,2,47.8 (active)
RAD23B,3,30.9 (active)
MIER1,1,53.3 (active)
MIER1,2,49.3 (active)
MIER1,3,63.2 (active)
POLR2I,1,51.6 (active)
POLR2I,2,44.7 (active)
POLR2I,3,34.5 (active)
SMARCA2,1,40 (active)
SMARCA2,2,43.8 (active)
SMARCA2,3,52.7 (active)
EPHA4,1,58.5 (active)
EPHA4,2,67.2 (active)
EPHA4,3,74.8 (active)
PRKAB2,1,68.7 (active)
PRKAB2,2,89.2
PRKAB2,3,50.4 (active)
IP6K1,1,43.7 (active)
IP6K1,2,49.6 (active)
IP6K1,3,36.3 (active)

Records above whose gene name starts with R or r (3):
Gene,technical replicate,"viability, normalised (%)"
RAD23B,1,43.8 (active)
RAD23B,2,47.8 (active)
RAD23B,3,30.9 (active)

Continued:
Gene,technical replicate,"viability, normalised (%)"
GTF3C4,1,26.9 (active)
GTF3C4,2,34.3 (active)
GTF3C4,3,29 (active)
TYMS,1,34.6 (active)
TYMS,2,31.4 (active)
TYMS,3,39.7 (active)
MAP3K1,1,57.3 (active)
MAP3K1,2,58.3 (active)
MAP3K1,3,66.9 (active)
MVK,1,67.7 (active)
MVK,2,61.9 (active)
MVK,3,62.4 (active)
PRKD3,1,68 (active)
PRKD3,2,64.6 (active)
PRKD3,3,83.7
